According to article PMC11235165 (Science Advances, 2024):
Some peptides are written in HELM: one residue between dots, names in brackets for other building blocks, links after the first $.

Assay: peptide synthesis
Details: conjugation step

**Q.** For “PEPTIDE1{[Bmt-JP1-138].[Abu].[Sar].[MeLeu].V.[MeLeu].A.[dA].[MeLeu].[MeLeu].[MeVal]}$PEPTIDE1,PEPTIDE1,1:R1-11:R2$$$V2.0”, which conjugation yield is on record?
**A.** 9.3%
